## Library screen at single concentrations

Chains of the proteins cited; added tags and fusions are not shown. Residues count along the entry.
UniProt P9WFT3, whole entry: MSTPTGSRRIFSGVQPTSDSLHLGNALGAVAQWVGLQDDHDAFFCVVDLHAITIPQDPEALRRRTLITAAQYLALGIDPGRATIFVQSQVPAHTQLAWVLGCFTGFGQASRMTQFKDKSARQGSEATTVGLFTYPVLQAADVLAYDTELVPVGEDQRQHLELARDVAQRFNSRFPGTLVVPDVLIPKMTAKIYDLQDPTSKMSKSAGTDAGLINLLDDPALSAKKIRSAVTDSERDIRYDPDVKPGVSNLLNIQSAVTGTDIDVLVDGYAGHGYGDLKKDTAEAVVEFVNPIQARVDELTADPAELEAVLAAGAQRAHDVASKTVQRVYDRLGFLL
UniProt P9WPC5, whole entry: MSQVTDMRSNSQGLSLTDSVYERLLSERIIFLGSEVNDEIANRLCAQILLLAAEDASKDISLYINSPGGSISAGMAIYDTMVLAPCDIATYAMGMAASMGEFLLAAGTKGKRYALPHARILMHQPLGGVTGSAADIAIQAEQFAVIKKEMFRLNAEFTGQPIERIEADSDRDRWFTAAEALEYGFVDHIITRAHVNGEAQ
UniProt P9WPC3, whole entry partner: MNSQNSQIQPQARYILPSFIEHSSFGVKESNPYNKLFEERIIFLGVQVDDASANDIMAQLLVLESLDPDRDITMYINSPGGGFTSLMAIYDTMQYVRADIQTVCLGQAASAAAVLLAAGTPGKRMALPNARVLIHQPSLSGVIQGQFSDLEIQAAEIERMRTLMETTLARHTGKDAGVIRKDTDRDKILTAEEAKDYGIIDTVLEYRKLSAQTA
UniProt Q4DA54, 1-478: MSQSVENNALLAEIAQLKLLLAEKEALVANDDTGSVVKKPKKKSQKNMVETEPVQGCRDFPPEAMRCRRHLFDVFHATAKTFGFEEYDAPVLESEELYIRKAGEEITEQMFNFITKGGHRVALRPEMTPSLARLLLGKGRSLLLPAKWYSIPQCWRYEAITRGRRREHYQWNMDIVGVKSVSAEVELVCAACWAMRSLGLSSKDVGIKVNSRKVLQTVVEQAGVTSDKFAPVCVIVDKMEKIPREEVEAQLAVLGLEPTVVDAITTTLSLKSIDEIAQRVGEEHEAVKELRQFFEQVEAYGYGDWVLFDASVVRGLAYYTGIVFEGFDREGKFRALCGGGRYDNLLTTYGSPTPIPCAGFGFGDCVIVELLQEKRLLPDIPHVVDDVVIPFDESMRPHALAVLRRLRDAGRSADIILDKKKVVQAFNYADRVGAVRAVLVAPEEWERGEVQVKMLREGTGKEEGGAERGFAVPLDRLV

From ChEMBL document CHEMBL3988442, “University of Dundee, Small-Polar-MMV Screening Library” (2021).

Each number is a percent effect as filed. The controls that fix the scale are not given in the record; negative values are as filed. This is an unselected part of the compounds tested. A dash means the value is not listed here; it may have been measured.

A: 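Tryptophan-tRNA ligase, Mycobacterium tuberculosis (UniProt P9WFT3). Enzyme assay of tryptophanyl-tRNA synthetase; the read-out is not stated. Tested at 10 µM. Direction is not recorded; retested compounds ran higher, which suggests that high means inhibition. Size under these conditions: about 65,000 compounds, about 64 of them at 50% or above in at least one test.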
B: 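ClpP1P2, Mycobacterium tuberculosis (UniProt P9WPC5 and UniProt P9WPC3). Protease assay of ClpP1P2, read by the AMC dye that it sets free. Concentration: 50 µM. Direction is inferred from only a few compounds that gave an IC50; most scored high, so higher reads as stronger inhibition. Most other retested compounds had strongly negative values. About 69,000 compounds were tested under these conditions; 0.015% (about 10) showed 50% or more at least once.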
C: 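Enzyme assay of histidyl-tRNA synthetase; the read-out is not stated. Target: Histidine-tRNA ligase, Trypanosoma cruzi CL Brener (UniProt Q4DA54). Tested at 30 µM. Higher reads as stronger inhibition (inferred: compounds with an IC50 in retests scored well above the rest). Size under these conditions: about 69,000 compounds, about 31 of them at 50% or above in at least one test.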

structure	A	B	C
CC1(C)OCC(CNC(=O)c2cnn(-c3cc(Cl)ccc3Cl)c2N)O1 (stereo unspecified)	-6.417	5.222	2.151
CC(C)n1cc(N2CC(C(=O)N3CCc4ccccc4C3)CC2=O)cn1 (stereo unspecified)	-0.2447	22.47	9.278
NCc1ccc(OC(F)F)cc1OC(F)F	-3.846	2.85	6.897
Cc1cc(C(=O)N2CC(O)CO2)c2ccc(C)c(C)c2n1 (stereo unspecified)	-0.6159	-10.99	1.031
Cc1nccn1CC1CCCN1CCCc1nc(-c2cccs2)no1 (stereo unspecified)	-2.739	9.703	7.519
CC1(NC(=O)Cc2csc(NC(=O)c3ccccc3)n2)CCS(=O)(=O)C1 (stereo unspecified)	0.5141	14.13	3.067
CO[C@H]1CCN(S(=O)(=O)N(C)C)[C@@H]2CN(Cc3cccnc3)C[C@H]12	-3.032	11.61	8.021
Cc1c(Cl)c(C(=O)NC(C)CN2CCOCC2)nn1C (stereo unspecified)	-1.4	-1.208	4.018
Cc1nc(CC(=O)N2CCC[C@H]2c2nc(C(C)C)no2)cs1	0.9479	-3.952	0.813
O=c1c2cccnc2cnn1CC(O)c1cccc(C(F)(F)F)c1 (stereo unspecified)	14.17	-3.765	1.587
CC(=O)N1CCCN(C(=O)NCC2(c3cccs3)CCCC2)CC1	-2.374	-0.9127	2.762
COc1ccnc(N2CCC3(CCCN(C(C)C)C3=O)C2)n1 (stereo unspecified)	-1.838	-4.654	0.5435
COc1ccccc1C1CNCCN1C(C)=O (stereo unspecified)	-0.3903	18.36	1.128
Brc1cc(CNCc2nnc3n2CCC3)cs1	-6.112	-2.955	16.88
Cc1ccc(-n2c(SCC(=O)O)nnc2-c2ccccc2)cc1	-	-0.04755	5.243
CCN(Cc1noc(CC(C)C)n1)Cc1ncccc1C(=O)O	-2.7	-16.11	7.303
O=C(O)c1ccc(C2CCCN(Cc3ccc(-c4cc[nH]n4)o3)C2)cc1 (stereo unspecified)	3.671	24.05	17
COC(=O)CC(NC(=O)CCn1cccn1)c1ccc(C)cc1 (stereo unspecified)	0.2241	-3.56	9.412
Cc1nn(C)c(C)c1CCC(=O)NCc1cccnc1OC1CCCC1	-4.069	0.3407	1.622
Cc1nc(CNC(C(=O)N2CCOCC2)c2ccccc2)cs1 (stereo unspecified)	-4.95	-4.721	-0.9804
Cc1nccn1CC1CCN(C(=O)c2ccccc2)CC1	0.1961	-1.633	12.05
CSCCNC(=O)c1ccc(OC2CCN(CC(C)(C)C)CC2)c(Cl)c1	-0.8382	-3.518	-1.695
CN(CC(F)(F)F)C(=O)CNC(=O)Cc1cccc(O)c1	-1.051	-9.936	3.158
Cc1ccc(C)c(C(=O)NCC(c2cccn2C)N2CCCCCC2)c1 (stereo unspecified)	-2.036	-2.059	9
O=C(c1ccc(NC2CC2)nc1)N1CCCC(n2cccn2)C1 (stereo unspecified)	-2.516	7.528	1.901
O=C(Nc1nc[nH]n1)c1cc(-c2ccc(F)cc2)n[nH]1	3.858	-8.816	-11
O=C(NCCCNC(=O)c1cccc(O)c1)Nc1ccc(F)cc1F	-0.3178	-3.113	0
CNC(=O)C1CCCCN1C(=O)c1n[nH]c(=O)c2ccccc12 (stereo unspecified)	-2.884	-5.709	5
C[C@H](N)C(=O)N1CCC(c2[nH]ncc2-c2ccccc2)CC1	-0.4542	1.289	12.06
CS(=O)(=O)N1C[C@@H]2COC[C@H](C(=O)Nc3cnccn3)[C@@H]2C1	1.542	-9.895	-1.84
Cc1cc(C)n(CC2CN(Cc3nc(C4CC4)no3)CCO2)n1 (stereo unspecified)	-0.9654	-6.548	4.843
Cn1c(Cn2ccnc2)nnc1C1CCN(C(=O)C2(C)CC2)CC1	-1.727	-3.074	0
NC(=O)COc1ccc(C2NC(=O)CN2Cc2ccc(Br)cc2)cc1 (stereo unspecified)	0.8639	-4.495	12.87
COCCN1C(=O)CO[C@H]2CN(S(=O)(=O)c3ccccc3)C[C@H]21	-1.732	-2.285	12.87
CN(Cc1ccccn1)C1CCCN(Cc2noc(C3CC3)n2)C1 (stereo unspecified)	-5.362	-3.231	1.156
CCN(C(=O)Cn1cc(NC(=O)C(C)(C)C)cn1)c1ccccc1	0.9202	-1.973	3.867
O=C(c1cccnc1Oc1ccccc1)N1CCCn2ncnc21	2.624	2.571	6.061
Cc1cccc(CN2C[C@H]3CC[C@@H]2CN(Cc2[nH]cnc2C)C3)n1	1.158	-33.42	0
Fc1ccccc1Oc1nccnc1C1CCN(C2CCOCC2)CC1	2.171	11.98	3.101
CC(C)(C)CC(=O)NCCCn1cncn1	-1.14	11.64	6.667
CC(Cn1cccn1)NC(=O)N(C)Cc1ccsc1 (stereo unspecified)	-2.719	7.277	0
CN(C)CCN1CCOCC2(CCCN(C(=O)Cc3ccccc3)C2)C1 (stereo unspecified)	8.788	3.973	8.824
COc1ccc(COCC(O)CNC(=O)c2cnc(C)cn2)cc1 (stereo unspecified)	-3.801	-5.631	-1.88
COc1ccccc1Oc1ncccc1CNC(=O)C1(C)CCCNC1 (stereo unspecified)	-2.379	7.347	1.622
COC1CCCN(Cc2nc(Cc3ccccc3F)no2)C1 (stereo unspecified)	3.425	-9.118	-1.653
CCCOc1ccc2c(c1)OCC(CNC1CCc3ncnn3C1)=C2 (stereo unspecified)	5.773	-8.462	6.957
Cc1nc(N2CCCC(OCc3ccccn3)C2)c2c(C)noc2n1 (stereo unspecified)	-0.9397	-6.89	0.4975
O=C(N[C@@H]1CCN(Cc2cc3ccccc3s2)C[C@H]1O)c1cccnc1	6.875	-24.82	2.232
CC(=O)N(Cc1noc(C)n1)C1CCN(CC(=O)N(C)C2CC2)C1 (stereo unspecified)	-3.263	10.41	0
CC(C)(C)CC(=O)N[C@@H]1CO[C@H](CNC(=O)c2ccncc2)[C@H]1O	1.907	-0.3552	5.473
Cc1nccn1-c1ccc(C(C)Nc2cnn(C)c(=O)c2Cl)cc1 (stereo unspecified)	2.169	-10.21	7.453
O=C(NC1CCC1)[C@H]1C[C@@H]2CN(CC3CC3)C[C@H]1O2	-	-9.84	7.778
Cc1cc(C(=O)N2CCC3(C2)CN(c2ccsc2)C(=O)CN3C)[nH]n1 (stereo unspecified)	-0.8403	-3.38	4.202
COCCC(=O)N[C@H]1CN(c2nc(C)c3c(n2)CCCC3)C[C@@H]1C1CC1	-3.361	-10.41	1.176
CC(=O)N1CCC(c2ccnc(Nc3cncnc3)n2)CC1	-	6.457	8.511
COc1ccc(Cl)cc1-n1c(COC(C)C)n[nH]c1=O	-5.496	-13.66	4.865
O=C(C1CC1)N1CCC2(CC1)CNCCO2	-1.066	8.953	6.135
Cc1cc(NC(=O)NCC(O)c2ccc(F)c(F)c2)n(C)n1 (stereo unspecified)	17.78	-22.8	2.941
CCS(=O)(=O)N1CCC2(CCCN(c3ncc(F)cn3)C2)C1 (stereo unspecified)	-4.758	7.688	2.299
CCS(=O)(=O)N1CCCC2(COCCN(c3nncs3)C2)C1 (stereo unspecified)	-2.525	5.096	3.448
CC(C)c1nn(C)c(N(C)C)c1CNCC(O)COc1ccccc1 (stereo unspecified)	-2.13	-12.86	2.242
O=C(NCc1cccc(F)c1)N1CCc2ncnc(NC3CC3)c2CC1	-	0.01426	4.233
CN(Cc1cnccn1)c1cncc(Br)c1	1.071	-12.94	2.488
COc1ccc(C(NC(=O)c2cccc[n+]2[O-])C2CC2)cc1 (stereo unspecified)	-2.408	0.4107	5.882
O=C(Nc1c(N2CCCC2)cccc1N1CCCC1)c1cnccn1	-4.383	9.599	4.598
CN1CCN(C[C@@H]2CN(C(=O)CC3CCCCC3)C[C@@H]2CO)CC1	0.06456	-12.36	0.4484

Once more, the final 7:

{"structure": "CCS(=O)(=O)N1CCCC2(COCCN(c3nncs3)C2)C1", "stereo": "stereo unspecified", "A": -2.525, "B": 5.096, "C": 3.448}
{"structure": "CC(C)c1nn(C)c(N(C)C)c1CNCC(O)COc1ccccc1", "stereo": "stereo unspecified", "A": -2.13, "B": -12.86, "C": 2.242}
{"structure": "O=C(NCc1cccc(F)c1)N1CCc2ncnc(NC3CC3)c2CC1", "B": 0.01426, "C": 4.233}
{"structure": "CN(Cc1cnccn1)c1cncc(Br)c1", "A": 1.071, "B": -12.94, "C": 2.488}
{"structure": "COc1ccc(C(NC(=O)c2cccc[n+]2[O-])C2CC2)cc1", "stereo": "stereo unspecified", "A": -2.408, "B": 0.4107, "C": 5.882}
{"structure": "O=C(Nc1c(N2CCCC2)cccc1N1CCCC1)c1cnccn1", "A": -4.383, "B": 9.599, "C": 4.598}
{"structure": "CN1CCN(C[C@@H]2CN(C(=O)CC3CCCCC3)C[C@@H]2CO)CC1", "A": 0.06456, "B": -12.36, "C": 0.4484}